Experimental data as given in PMC10279920, “Single-molecule visualization of Pif1 helicase translocation on single-stranded DNA” (The Journal of Biological Chemistry, 2023).
Residue numbers refer to the chain shown, from its start. Construct, isoform or probe ends are uncertain for at least one entry. A weaker result is weaker than the reference pair of the same experiment. At least one verdict rests on a figure or table, not on a statement of the authors. Where a protein sequence is shown, tags need not be part of it.

Columns and labels:
[1] = molecular target: T1, GFP-Pif1 N526A (Saccharomyces cerevisiae) (UniProt P07271); assay: EMSA; details: no ATP, 5 mM Mg2+, 35 mM Tris-HCl pH 7.5, 1 mM DTT, 5 mM MgCl2, 60 mM KCl, 0.1 mg/ml BSA, 30 min at 30 C, 5 nM ssDNA, recombinant protein, residues 40-859, protein details: N-terminal superfolder GFP, Ni-NTA purified, label: 5' Alexa647, single-stranded DNA
T1 sequence (looked up): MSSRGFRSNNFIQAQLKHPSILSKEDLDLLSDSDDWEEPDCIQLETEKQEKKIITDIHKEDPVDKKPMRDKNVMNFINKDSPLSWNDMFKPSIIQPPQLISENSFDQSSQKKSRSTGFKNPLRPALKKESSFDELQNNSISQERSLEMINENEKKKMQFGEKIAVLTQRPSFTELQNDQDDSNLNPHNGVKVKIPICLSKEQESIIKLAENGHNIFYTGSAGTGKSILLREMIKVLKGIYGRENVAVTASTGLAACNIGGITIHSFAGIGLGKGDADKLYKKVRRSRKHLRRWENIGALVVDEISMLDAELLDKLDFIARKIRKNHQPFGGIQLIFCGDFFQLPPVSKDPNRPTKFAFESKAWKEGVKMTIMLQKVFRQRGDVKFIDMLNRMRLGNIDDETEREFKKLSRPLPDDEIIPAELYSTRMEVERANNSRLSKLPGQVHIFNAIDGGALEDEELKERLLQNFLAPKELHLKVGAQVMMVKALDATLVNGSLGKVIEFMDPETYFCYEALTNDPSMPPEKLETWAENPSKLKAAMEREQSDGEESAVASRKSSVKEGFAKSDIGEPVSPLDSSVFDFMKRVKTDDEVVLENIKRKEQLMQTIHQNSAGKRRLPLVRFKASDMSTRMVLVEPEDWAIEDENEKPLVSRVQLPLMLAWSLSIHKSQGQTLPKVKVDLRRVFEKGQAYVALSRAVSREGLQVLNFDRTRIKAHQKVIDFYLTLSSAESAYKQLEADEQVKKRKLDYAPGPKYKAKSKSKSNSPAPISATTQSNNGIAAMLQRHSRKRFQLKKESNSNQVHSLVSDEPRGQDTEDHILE

[2] = molecular target: T2, GFP-Pif1 R465A (Saccharomyces cerevisiae) (UniProt P07271); assay: EMSA; details: no ATP, 5 mM Mg2+, 35 mM Tris-HCl pH 7.5, 1 mM DTT, 5 mM MgCl2, 60 mM KCl, 0.1 mg/ml BSA, 30 min at 30 C, 5 nM ssDNA, recombinant protein, residues 40-859, protein details: N-terminal superfolder GFP, Ni-NTA purified, label: 5' Alexa647, single-stranded DNA
T2 sequence (looked up): T1 sequence (looked up) with R426A, A487N

## GCTAGCAGTAGCCAGCATCGAACGTACGATCGGTAACGTA [40-nt ssDNA]
[1]
  binding result: binds more weakly
[2]
  binding result: binds more weakly
